In patent US7026134B2 (priority 2001, dated 2006):

How the values were obtained:
[1] = system: IgG fraction of the antiserum raised to immunogen A (hapten A-BSA); format: binding, sheep; settings: absorbance at 450 nm
Experimental: Aqueous solutions of the immunogens prepared in Examples 7 and 8 were formulated with Freund's Complete Adjuvant (FCA) to form emulsions consisting of 4 mg/ml immunogen A and 2 mg/ml immunogen B in 50% (v/v) FCA. Three sheep were immunized with each emulsion (1° immunizations), 0.25 ml being subcutaneously injected at each of four sites in the flank of each animal. The next immunizations (first boosts) contained 2 mg/ml immunogen A and 1 mg/ml immunogen B. Subsequent immunizations (boosts […]) contained 1 mg/ml of each immunogen. All boosts were emulsified in 50% (v/v) Freund's Incomplete Adjuvant (FIA) and administered to the appropriate sheep in the same manner as the 1° immunizations, at monthly intervals for 1 year. Blood sampling took place 7 to 14 days after each boost. Each sample was processed to produce antiserum which was further purified by caprylic acid and ammonium sulfate precipitation to yield an immunoglobulin G (IgG) fraction. The IgG fraction was evaluated by competitive ELISA microtiter plate assay, as described in Example 12 below.
(a) The wells of an enhanced binding 96-well polystyrene microtiter plate were coated with the IgG fraction of the antiserum raised to immunogen A (hapten A-BSA) (Example 7), diluted in 10 mM Tris, pH8.5 (125 μl/well). The appropriate antibody coating dilution was determined using standard ELISA chequerboard techniques. The plate was incubated for 2 hours at 37° C., washed 4 times with Tris-buffered saline containing Tween 20 (TBST) and tapped dry. […] 75 μl of conjugate A (hapten A-HRP) (Example 10), diluted in Tris buffer containing EDTA, D-mannitol, sucrose, thimerosal and BSA, was added to each of the wells. The appropriate dilution of conjugate was also determined using standard ELISA chequerboard techniques. The plate was incubated at 37° C. for 2 hours. The excess unbound conjugate was removed by washing 6 times over a 10 minute period with TBST. 125 μl of tetramethylbenzedine (TMB) substrate solution was added to each well of the plate that was then incubated for 15 to 20 minutes in the dark at room temperature. The reaction was terminated by addition of 125 μl 0.2M H2SO4 to each well. The absorbance was then measured at 450 nm using a microtiter plate reader.

[2] = system: IgG fraction of the antiserum raised to immunogen B (hapten B-BSA); format: binding, sheep; settings: absorbance at 450 nm
[3] = standard concentration 0.5 ng/ml
[4] = standard concentration 25 ng/ml
[5] = standard concentration 250 ng/ml
[6] = standard concentration 500 ng/ml
[7] = standard concentration 10 ng/ml
[8] = standard concentration 50 ng/ml
[9] = standard concentration 100 ng/ml
[10] = standard concentration 1000 ng/ml
[11] = standard concentration 2000 ng/ml

Structure (SMILES)	A450 [1, 3]	A450 ([1]; standard concentration 1 ng/ml)	A450 ([1]; standard concentration 5 ng/ml)	A450 [1, 4]	A450 [1, 5]	A450 [1, 6]	A450 [2, 7]	A450 [2, 8]	A450 [2, 9]	A450 [2, 5]	A450 [2, 6]	A450 [2, 10]	A450 [2, 11]	A450 [1, 9]
COc1ccc2c3c1O[C@H]1C(=O)CC[C@@]4(O)[C@@H](C2)N(C)CC[C@]314 [Oxycodone]	2.185	2.028	1.464	0.891	0.366	0.249	1.679	1.111	0.928	0.578	0.394	0.271	0.185	
COc1ccc2c3c1O[C@H]1C(=O)CC[C@@]4(O)[C@@H](C2)NCC[C@]314 [Noroxycodone]	2.290	2.312	2.314	2.292	2.217	2.141	2.187	1.709	1.569	1.254	1.053	0.785	0.588	2.254
CN1CC[C@]23c4c5ccc(O)c4O[C@H]2C(=O)CC[C@@]3(O)[C@H]1C5 [Oxymorphone]	2.162	2.103	1.747	1.328	0.679	0.567	2.421	2.270	2.216	2.181	2.101	1.964	1.788	0.912

Where two headings read alike, the source gives them in different places.
